Numbering of substitutions follows the chain as printed. No constants are given. Whether binding was seen depends on the method and setting. Binding seen in cells or lysates may run through a third protein. Some results given as binding are weak or reduced against the parent protein; the word gives no strength.
Columns and labels:
[1] = molecular target: T1, mCherry-Cyclin F^WT (UniProt P41002); assay: reverse co-immunoprecipitation in Neuro2a cells
T1 sequence (looked up): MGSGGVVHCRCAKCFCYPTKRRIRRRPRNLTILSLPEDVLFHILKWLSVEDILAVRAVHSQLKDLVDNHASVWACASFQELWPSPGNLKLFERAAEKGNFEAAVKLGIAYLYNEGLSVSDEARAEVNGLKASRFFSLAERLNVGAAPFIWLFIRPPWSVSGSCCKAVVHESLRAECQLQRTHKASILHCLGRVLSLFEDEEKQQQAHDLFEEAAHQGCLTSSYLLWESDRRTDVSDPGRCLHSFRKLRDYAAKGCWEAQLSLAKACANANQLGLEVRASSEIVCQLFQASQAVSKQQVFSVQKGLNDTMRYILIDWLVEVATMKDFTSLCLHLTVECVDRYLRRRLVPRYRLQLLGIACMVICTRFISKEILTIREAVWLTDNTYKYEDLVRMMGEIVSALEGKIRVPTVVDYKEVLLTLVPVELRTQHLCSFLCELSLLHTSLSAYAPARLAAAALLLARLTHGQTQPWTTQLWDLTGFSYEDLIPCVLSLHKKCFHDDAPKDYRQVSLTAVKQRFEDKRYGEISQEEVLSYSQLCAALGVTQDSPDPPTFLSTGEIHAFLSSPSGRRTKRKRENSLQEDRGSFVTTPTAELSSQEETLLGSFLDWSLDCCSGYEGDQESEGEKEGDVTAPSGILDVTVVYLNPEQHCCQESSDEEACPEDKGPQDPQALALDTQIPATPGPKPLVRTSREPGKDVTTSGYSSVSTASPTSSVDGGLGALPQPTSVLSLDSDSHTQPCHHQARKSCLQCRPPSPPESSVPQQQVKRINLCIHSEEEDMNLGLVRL

By UniProt entry, the sequences of proteins in these tests, tags left out.
UniProt Q921F2: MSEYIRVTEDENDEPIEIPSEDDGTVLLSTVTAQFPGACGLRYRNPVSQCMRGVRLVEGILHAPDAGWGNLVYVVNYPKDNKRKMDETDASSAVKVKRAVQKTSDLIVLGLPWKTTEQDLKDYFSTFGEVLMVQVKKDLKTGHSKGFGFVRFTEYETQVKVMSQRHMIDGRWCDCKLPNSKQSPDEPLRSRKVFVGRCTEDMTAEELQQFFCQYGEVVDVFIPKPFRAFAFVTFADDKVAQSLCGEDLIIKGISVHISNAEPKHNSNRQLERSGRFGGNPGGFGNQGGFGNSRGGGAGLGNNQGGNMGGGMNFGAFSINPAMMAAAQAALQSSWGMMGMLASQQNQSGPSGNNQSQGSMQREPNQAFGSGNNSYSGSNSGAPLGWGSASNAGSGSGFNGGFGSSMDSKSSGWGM

[2] = molecular target: T1, mCherry-Cyclin F^WT; assay: co-immunoprecipitation, western blot
[3] = molecular target: T2, mCherry-Cyclin F^S621G (UniProt P41002); assay: co-immunoprecipitation, western blot
T2 sequence (looked up): T1 sequence (looked up) with S621G

binding [1]: binds | binding [2]: binds | binding [3]: binds
Substance: endogenous TDP-43 in Neuro2A cells (from UniProt Q921F2 1-414)
